These are yes or no findings as the source states them, for the method shown. Some entries that bind do so weakly or less than the wild type. Sequences can lack the tags named with a protein.
Key:
[1] = target: T1, TaGST3 subunit (26 kDa, safener-inducible) (wheat (Triticum aestivum L.)); test: subunit composition of purified isoenzymes (anion exchange, reversed-phase HPLC, SDS-PAGE)
T1 sequence: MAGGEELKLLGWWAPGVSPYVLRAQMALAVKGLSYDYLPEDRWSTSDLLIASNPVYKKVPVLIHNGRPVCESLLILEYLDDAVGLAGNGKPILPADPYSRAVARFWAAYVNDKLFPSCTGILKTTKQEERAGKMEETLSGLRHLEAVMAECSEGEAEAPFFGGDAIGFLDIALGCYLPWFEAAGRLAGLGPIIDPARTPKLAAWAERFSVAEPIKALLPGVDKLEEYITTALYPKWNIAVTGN

[2] = target: T2, TaGST2 subunit (26 kDa, safener-inducible) (wheat (Triticum aestivum L.)); test: as above
T2 sequence: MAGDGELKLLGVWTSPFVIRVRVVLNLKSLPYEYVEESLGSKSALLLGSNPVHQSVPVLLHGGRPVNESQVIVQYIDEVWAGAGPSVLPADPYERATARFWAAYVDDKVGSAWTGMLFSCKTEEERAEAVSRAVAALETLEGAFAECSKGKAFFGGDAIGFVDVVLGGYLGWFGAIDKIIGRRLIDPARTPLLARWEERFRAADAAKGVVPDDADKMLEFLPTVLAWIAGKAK

B1: Triticum aestivum GST 1 subunit (25 kDa) (enzyme)
chain: MAGEKGLVLLDFWVSPFGQRVRIALAEKGLPYEYAEEDLMAGKSDRLLRANPVHKKIPVLLHDGRAVNESLIILQYLEEAFPDAPALLPSDPYARAQARFWADYVDKKVYDCGSRLWKLKGEPQAQARAEMLDILKTLDGALGDKPFFGGDKFGFVDAAFAPFTAWFHSYERYGEFSLPEVAPKIAAWAKRCGERESVAKSLYSPDKVYDFIGLLKKKYGIE
notes: Native subunit in wheat shoot extracts; also called TaGST1
With B1 the binding [1] was “binds” and the binding [2] was “binds”.
